## Primary screen of a compound library

Chains of the proteins cited; added tags and fusions are not shown. Residues count along the entry.
UniProt P9WPC5, whole entry: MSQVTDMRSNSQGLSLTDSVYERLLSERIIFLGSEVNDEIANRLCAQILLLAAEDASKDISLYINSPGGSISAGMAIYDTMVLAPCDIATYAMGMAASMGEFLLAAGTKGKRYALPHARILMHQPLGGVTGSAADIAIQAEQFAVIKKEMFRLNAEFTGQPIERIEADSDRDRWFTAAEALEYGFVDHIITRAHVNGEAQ
UniProt P9WPC3, whole entry partner: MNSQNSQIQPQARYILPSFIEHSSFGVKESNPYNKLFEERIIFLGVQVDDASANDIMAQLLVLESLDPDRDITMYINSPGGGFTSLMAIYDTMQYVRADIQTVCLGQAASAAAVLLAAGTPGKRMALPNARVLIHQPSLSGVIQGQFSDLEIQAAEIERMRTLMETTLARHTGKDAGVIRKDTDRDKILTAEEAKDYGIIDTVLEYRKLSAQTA
UniProt I6X8D2, whole entry: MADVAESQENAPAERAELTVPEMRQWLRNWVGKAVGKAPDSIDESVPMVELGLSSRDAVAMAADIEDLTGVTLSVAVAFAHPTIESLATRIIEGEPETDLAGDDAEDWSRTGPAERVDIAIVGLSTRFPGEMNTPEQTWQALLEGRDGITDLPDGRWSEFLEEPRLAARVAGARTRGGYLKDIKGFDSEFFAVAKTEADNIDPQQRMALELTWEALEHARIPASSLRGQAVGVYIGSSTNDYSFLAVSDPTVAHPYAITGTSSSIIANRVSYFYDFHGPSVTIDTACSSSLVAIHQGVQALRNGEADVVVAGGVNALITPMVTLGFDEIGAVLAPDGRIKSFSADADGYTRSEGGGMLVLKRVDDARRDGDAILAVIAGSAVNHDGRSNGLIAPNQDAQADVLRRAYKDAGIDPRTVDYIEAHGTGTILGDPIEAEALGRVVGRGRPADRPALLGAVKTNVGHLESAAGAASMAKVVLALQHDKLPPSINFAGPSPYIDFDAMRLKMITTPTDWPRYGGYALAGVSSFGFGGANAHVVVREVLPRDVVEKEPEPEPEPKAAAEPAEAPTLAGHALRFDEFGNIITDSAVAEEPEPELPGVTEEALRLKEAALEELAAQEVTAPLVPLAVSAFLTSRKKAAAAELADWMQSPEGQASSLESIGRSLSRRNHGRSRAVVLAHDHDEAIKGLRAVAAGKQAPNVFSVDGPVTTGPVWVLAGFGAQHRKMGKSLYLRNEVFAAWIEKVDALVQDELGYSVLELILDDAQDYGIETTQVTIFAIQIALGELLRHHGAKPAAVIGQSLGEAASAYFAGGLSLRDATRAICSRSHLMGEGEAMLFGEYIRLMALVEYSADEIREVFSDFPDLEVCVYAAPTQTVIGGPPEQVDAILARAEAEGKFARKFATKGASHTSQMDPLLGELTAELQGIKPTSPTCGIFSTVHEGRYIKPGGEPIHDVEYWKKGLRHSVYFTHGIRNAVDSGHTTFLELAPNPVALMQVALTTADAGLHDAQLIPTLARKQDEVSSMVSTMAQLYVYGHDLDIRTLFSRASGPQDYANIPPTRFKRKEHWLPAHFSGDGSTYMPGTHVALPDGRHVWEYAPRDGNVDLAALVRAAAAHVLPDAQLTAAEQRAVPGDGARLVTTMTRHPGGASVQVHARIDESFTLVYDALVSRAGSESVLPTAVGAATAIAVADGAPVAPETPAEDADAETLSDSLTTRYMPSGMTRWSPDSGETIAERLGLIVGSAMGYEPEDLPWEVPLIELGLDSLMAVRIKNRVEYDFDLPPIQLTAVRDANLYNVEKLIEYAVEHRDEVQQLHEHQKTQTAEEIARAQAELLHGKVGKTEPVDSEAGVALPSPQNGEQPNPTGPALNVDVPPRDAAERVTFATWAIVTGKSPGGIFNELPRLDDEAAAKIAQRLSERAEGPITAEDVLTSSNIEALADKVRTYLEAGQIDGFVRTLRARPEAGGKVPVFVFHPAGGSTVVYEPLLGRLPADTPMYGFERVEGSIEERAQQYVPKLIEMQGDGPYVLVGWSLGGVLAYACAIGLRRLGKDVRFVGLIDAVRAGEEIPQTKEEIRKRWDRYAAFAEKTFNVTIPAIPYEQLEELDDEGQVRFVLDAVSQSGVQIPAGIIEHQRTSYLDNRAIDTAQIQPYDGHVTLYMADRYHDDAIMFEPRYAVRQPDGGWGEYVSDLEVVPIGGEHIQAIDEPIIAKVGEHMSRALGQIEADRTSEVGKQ
UniProt Q8IDJ8, 1-583: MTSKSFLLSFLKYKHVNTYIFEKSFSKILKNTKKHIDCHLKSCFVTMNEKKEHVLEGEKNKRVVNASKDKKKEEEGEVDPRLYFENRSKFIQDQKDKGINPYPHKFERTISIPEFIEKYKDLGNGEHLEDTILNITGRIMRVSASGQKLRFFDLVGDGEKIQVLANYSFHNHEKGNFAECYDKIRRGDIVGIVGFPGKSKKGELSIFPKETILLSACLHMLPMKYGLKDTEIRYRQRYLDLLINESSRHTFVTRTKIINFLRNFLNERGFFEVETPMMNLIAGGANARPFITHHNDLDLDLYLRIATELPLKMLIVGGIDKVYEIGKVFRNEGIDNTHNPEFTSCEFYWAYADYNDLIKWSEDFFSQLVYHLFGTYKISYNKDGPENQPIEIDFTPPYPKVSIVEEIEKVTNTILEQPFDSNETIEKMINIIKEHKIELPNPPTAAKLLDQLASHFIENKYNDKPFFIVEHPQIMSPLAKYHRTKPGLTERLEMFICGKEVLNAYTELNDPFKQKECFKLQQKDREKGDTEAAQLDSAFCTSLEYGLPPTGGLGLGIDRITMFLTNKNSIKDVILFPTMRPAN

A: 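ClpP1P2, Mycobacterium tuberculosis (UniProt P9WPC5 and UniProt P9WPC3). Protease assay of ClpP1P2, read by the AMC dye that it sets free. Compounds at 50 µM. Direction is inferred from only a few compounds that gave an IC50; most scored high, so higher reads as stronger inhibition. Most other retested compounds had strongly negative values. Of about 69,000 compounds tested this way, about 10 (0.015%) reached 50% or more in at least one test.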
B: 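Cell assay of Leishmania donovani living inside macrophages; the read-out is not stated. Tested at 30 µM. Direction is inferred from retests: higher values go with stronger inhibition. About 69,000 compounds were tested under these conditions; 1.5% (about 1,000) showed 50% or more at least once.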
C: 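Enzyme assay of the thioesterase domain of polyketide synthase 13; the read-out is not stated. Target: Polyketide synthase Pks13, Mycobacterium tuberculosis (UniProt I6X8D2). Compounds at 30 µM. Higher reads as stronger inhibition (inferred from which compounds were picked for retests). Size under these conditions: about 67,000 compounds, about 300 of them at 50% or above in at least one test.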
D: 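Enzyme assay of the cytosolic lysyl-tRNA synthetase in 384-well plates, read by luminescence. Target: Lysine-tRNA ligase, Plasmodium falciparum 3D7 (UniProt Q8IDJ8). Tested at 30 µM. Direction is inferred from only a few compounds that gave an IC50; most scored high, so higher reads as stronger inhibition. Of about 69,000 compounds tested this way, about 49 (0.071%) reached 50% or more in at least one test.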
E: 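Assay of Toxoplasma gondii numbers, read through their beta-galactosidase reporter with a colour substrate. Compounds at 10 µM. The record gives no direction; the compounds picked for IC50 retests had high values, so higher reads as fewer parasites. About 67,000 compounds were tested under these conditions; 0.38% (about 260) showed 50% or more at least once.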

Results are given as percent effect.
How 0% and 100% were set is not recorded. Most values in the screen are low, and negative values occur.
This is an unselected part of the compounds tested.
Two or more numbers in one place are separate tests of the same structure; such repeats can differ widely.
A dash means the value is not listed here; it may have been measured.

SMILES | A | B | C | D | E
Cc1ccc2c(c1)c(CNC(=O)C1CCCN(CC(N)=O)C1)nn2C (configuration not stated) | -1.219% | 10.97% | -32.57% | 3.92% | -9.634%
O=C(CCn1ncc2c(Cl)cccc21)NCCCO | 2.991% | 4.852% | -5.747% | 1.592% | -3.704%
CC(C)(CN1CCC(Cc2ccc(CO)cc2)C1)N1CCOCC1 (configuration not stated) | -7.219% | 27.72% | -6.925% | 8.869% | 13.43%
O=C(NCCNS(=O)(=O)C1CCCCC1)c1ccccc1 | -2.34% | -24.19% | -9.19% | -0.1373% | -26.11%
CCCc1noc(C2CCCCN2C(=O)C2CCCC2)n1 (configuration not stated) | 8.645% | -24.83% | -11.33% | -9.67% | 7.972%
CNC(=O)CCc1cc(C)nc(C2CCCN2)c1 (configuration not stated) | -0.2358% | 1.38% | -21.9% | 5.121% | 12.36%
Cc1nsc(N2CCCN(c3ccc(C#N)cn3)CC2)n1 | 2.678% | -6.045% | -9.741% | 6.251% | -0.7692%
CC(C)N(C)Cc1cncc2c1CCN(CC(=O)N(C)C)C2.Cl.Cl.Cl | - | 7.349% | - | - | 10.62%
Cn1cnnc1S(=O)(=O)C1CCN(S(=O)(=O)c2ccccc2F)CC1 | -15.29% | -4.741% & -33.79% | -9.007% | 1.375% | 2.77%
CCCC(NC(=O)c1cscc1C)c1nnn[nH]1 (configuration not stated) | -1.136% | 17.83% | -4.351% | 2.379% | 6.744%
CCCN1CCc2[nH]nc(C(=O)N3CCNC(=O)C3)c2C1.O=C(O)C(F)(F)F.O=C(O)C(F)(F)F | - | 17.31% | - | - | 0.1618%
CCCc1nn(Cc2ccc(Br)s2)c(=O)o1 | -17.46% | -81.77% | 2.02% | -3.228% | 1.94%
CN1CCC(N(CCc2ccccc2)C(=O)c2cc[nH]c2)CC1 | -7.049% | 69.36% | -53.41% | 3.102% | -4.313%
COc1cc(N2CCC[C@]3(C(=O)O)CN(C(C)C)C[C@@H]3C2)ncn1 | 3.368% | - | -27.23% | 0.4021% | -
Cc1cc(NC(=O)c2ccc(C)c(F)c2)[nH]n1 | 9.812% | 11.9% | - | 7.205% | -6.442%
O=C(O)CC(O)(CC(=O)O)C(=O)O.c1ccc(CC2CCN(Cc3ccnc(-c4cccnc4)n3)CC2)cc1 | - | -47.34% | - | - | 5.83%
O=C(O)C(F)(F)F.[H][C@@]12CN(C(=O)c3ccco3)C[C@]1([H])C(=O)N(Cc1cccc(C)n1)C2 | - | -6.063% | - | - | -6.99%
COCC(=O)N1CCCC(C(=O)N(C)CCCc2cnn(C)c2)C1 (configuration not stated) | 0.4208% | -11.43% | -6.024% | 0.8744% | 2.276%
O=c1ccc2c(n1Cc1ccncc1)CCN(C1CCOC1)CC2 (configuration not stated) | -3.886% | 21.43% | -33.28% | 0.1486% | -0.4184%
c1cncc(CN(Cc2ccsc2)Cc2ccc(C3CCCCO3)o2)c1 (configuration not stated) | 2.022% | 12.23% | -39.01% | -2.365% | -15.34%
O=C(C1CCOC1)N1CCC2(CC1)CN(c1ncccn1)CCO2.O=C(O)C(F)(F)F (configuration not stated) | - | 43.92% | - | - | -3.845%
Cc1ccc(C(=O)N2CCC(Oc3ccc(F)cc3F)CC2)c(=O)[nH]1 | 14.57% | 28.12% | -4.562% | -5.518% | -53.63%
Cc1sc2nc(C(F)(F)F)nc(N3CCCN(C)CC3)c2c1C | 6.435% | 34.56% | -12.04% | 3.718% | -11.23%
Cc1ccc(CNC(=O)N2CCN(S(C)(=O)=O)CC2)n1C | 2.64% | -2.822% | 7.321% | 5.312% | 4.011%
CCN1CCN(C(=O)c2cc(C(F)(F)F)n[nH]2)[C@H]2CS(=O)(=O)C[C@H]21 | -1.31% | - | -179.8% | 2.436% | -
COc1ccc(N2CCN(CC(O)c3ccc(C)cc3C)CC2)cc1 (configuration not stated) | 6.124% | 37.5% & 2.081% | -0.6899% | 5.511% | 9.508%
CCS(=O)(=O)NCC1Cn2nnc(-c3ccccc3)c2CO1 (configuration not stated) | -2.298% | 7.256% | - | 1.196% | 1.72%
Cn1cc(CN2CCc3ccc(=O)n(Cc4ccncc4)c3CC2)cn1 | -6.111% | - | 13.35% | 2.043% | -
Cc1cc(C)c(CNC(=O)C(C)Oc2cccc(C#N)c2)c(=O)[nH]1 (configuration not stated) | -14.87% | -34.32% & -8.363% | -8.781% | 3.375% | 7.256%
CNC(=O)c1cc2c(nc1NCC1CC1)CCN(c1ccncn1)CC2 | -91.54% | - | -245.9% | -2.601% | -
CN(c1cccc2ccccc12)S(=O)(=O)c1cc(C(=O)O)cs1 | 1.629% | 20.73% | -3.667% | 11.12% | 1.495%
Cc1cc2nc(SCC(=O)N3CCCC3)n(-c3ccccc3)c(=O)c2[nH]1 | 7.628% | 40.99% | -25.95% | 5.862% | 5.279%
Cn1cccc1CN1CCC2(CC1)CN(c1ncccn1)CCO2 | -14.23% | - | -1.927% | 4.393% | -
CCc1ccc(C2CCCN2C(=O)CNC(=O)CCC(C)C)o1 (configuration not stated) | 1.2% | 8.904% | -7.006% | -3.156% | 3.277%
CCC1CN(C(=O)c2ccccc2N2CCCC2)CCN1C(C)C (configuration not stated) | -38.12% | 13.93% | 2.567% | 0.07644% | 1.9%
O=C(N1CCCC1)N1CCC2(CCCN(CCOc3ccccc3)C2)C1.O=C(O)C(F)(F)F (configuration not stated) | - | 29.03% | - | - | 2.746%

The first 4 entries again:

{"smiles": "Cc1ccc2c(c1)c(CNC(=O)C1CCCN(CC(N)=O)C1)nn2C", "stereo": "configuration not stated", "A": -1.219, "B": 10.97, "C": -32.57, "D": 3.92, "E": -9.634}
{"smiles": "O=C(CCn1ncc2c(Cl)cccc21)NCCCO", "A": 2.991, "B": 4.852, "C": -5.747, "D": 1.592, "E": -3.704}
{"smiles": "CC(C)(CN1CCC(Cc2ccc(CO)cc2)C1)N1CCOCC1", "stereo": "configuration not stated", "A": -7.219, "B": 27.72, "C": -6.925, "D": 8.869, "E": 13.43}
{"smiles": "O=C(NCCNS(=O)(=O)C1CCCCC1)c1ccccc1", "A": -2.34, "B": -24.19, "C": -9.19, "D": -0.1373, "E": -26.11}

Data taken from ChEMBL document CHEMBL3988442, “University of Dundee, Small-Polar-MMV Screening Library” (2021).